Some entries repeat one wording, which the source may state once for all of them. Some compounds share one range, which may span the group rather than tell each member.

The values that follow come from patent publication US6780835B2, “Perfume compositions” (Quest International B.V., priority 1997, dated 2004).

A short description of the data set: Deposition of perfume ingredients on spandex-containing cloth versus all-cotton cloth after washing (solvent extraction, gas chromatography). To be noted: concentration extracted from 95% cotton/5% spandex cloth relative to all-cotton cloth; detergent powder with 0.5% perfume; line dried overnight.

With `CC(C)CCCC(C)(C)O` [2,6-Dimethyl-heptan-2-ol], the Enhancement entry is “L (less than 5 or not measurable, it was coded(L))”. With `OCCc1ccccc1` [2-Phenylethanol], the Enhancement entry is on record as “L (less than 5 or not measurable, it was coded(L))”.

Take `CC(=O)CCc1ccccc1` [Benzyl acetone]: the Enhancement result is given as “M (greater than from the all-cotton cloth by a factor of 5 to 20, the result was coded as a medium enhancement (M))”. As for `CCOCOC1CCCCCCCCCCC1` [Boisambrene Forte], the Enhancement result is “M (greater than from the all-cotton cloth by a factor of 5 to 20, the result was coded as a medium enhancement (M))”. In the case of `CC(C)=CCCC(C)CCO` (stereo not drawn) [Citronellol] it was “H (greater by 20 or more, it was coded high(H))”. `CC(=O)OC1CC2CC1C1CC=CC21` (stereo not drawn) [Jasmacyclene, tricyclodecenyl acetate]: the Enhancement entry was “H (greater by 20 or more, it was coded high(H))”. As for `COC(=O)c1ccccc1O` [Methyl salicylate], the Enhancement entry is recorded as “L (less than 5 or not measurable, it was coded(L))”. `CC(=O)OC(C)(C)C1CC=C(C)CC1` (stereo not drawn) [Terpinyl acetate]: the Enhancement result is given as “H (greater by 20 or more, it was coded high(H))”. On to `CC(C)CCCC(C)CCO` (stereo not drawn) [Tetrahydrogeraniol], for which the Enhancement entry is reported as “H (greater by 20 or more, it was coded high(H))”. Regarding `CCC(C)(O)CCCC(C)C` (stereo not drawn) [Tetrahydrolinalol], the Enhancement entry is “H (greater by 20 or more, it was coded high(H))”. With `CC(=O)c1cc2c(cc1C)C(C)(C)C(C)CC2(C)C` (stereo not drawn) [Tonalid], the Enhancement entry is listed as “M (greater than from the all-cotton cloth by a factor of 5 to 20, the result was coded as a medium enhancement (M))”.

As to `COc1ccc2ccccc2c1` [Yara], the Enhancement entry is given as “H (greater by 20 or more, it was coded high(H))”.
